Assay [1] has as its target cysteine-clamped full-length vinculin (HV-CC) (human) (UniProt P18206). As to the kind of experiment: native gel or EMSA. Background: Mobility shift assays separate free from complexed probe on a gel.
The target in assay [2] is T1, full-length human vinculin (HV) (human), P18206.
T1 chain: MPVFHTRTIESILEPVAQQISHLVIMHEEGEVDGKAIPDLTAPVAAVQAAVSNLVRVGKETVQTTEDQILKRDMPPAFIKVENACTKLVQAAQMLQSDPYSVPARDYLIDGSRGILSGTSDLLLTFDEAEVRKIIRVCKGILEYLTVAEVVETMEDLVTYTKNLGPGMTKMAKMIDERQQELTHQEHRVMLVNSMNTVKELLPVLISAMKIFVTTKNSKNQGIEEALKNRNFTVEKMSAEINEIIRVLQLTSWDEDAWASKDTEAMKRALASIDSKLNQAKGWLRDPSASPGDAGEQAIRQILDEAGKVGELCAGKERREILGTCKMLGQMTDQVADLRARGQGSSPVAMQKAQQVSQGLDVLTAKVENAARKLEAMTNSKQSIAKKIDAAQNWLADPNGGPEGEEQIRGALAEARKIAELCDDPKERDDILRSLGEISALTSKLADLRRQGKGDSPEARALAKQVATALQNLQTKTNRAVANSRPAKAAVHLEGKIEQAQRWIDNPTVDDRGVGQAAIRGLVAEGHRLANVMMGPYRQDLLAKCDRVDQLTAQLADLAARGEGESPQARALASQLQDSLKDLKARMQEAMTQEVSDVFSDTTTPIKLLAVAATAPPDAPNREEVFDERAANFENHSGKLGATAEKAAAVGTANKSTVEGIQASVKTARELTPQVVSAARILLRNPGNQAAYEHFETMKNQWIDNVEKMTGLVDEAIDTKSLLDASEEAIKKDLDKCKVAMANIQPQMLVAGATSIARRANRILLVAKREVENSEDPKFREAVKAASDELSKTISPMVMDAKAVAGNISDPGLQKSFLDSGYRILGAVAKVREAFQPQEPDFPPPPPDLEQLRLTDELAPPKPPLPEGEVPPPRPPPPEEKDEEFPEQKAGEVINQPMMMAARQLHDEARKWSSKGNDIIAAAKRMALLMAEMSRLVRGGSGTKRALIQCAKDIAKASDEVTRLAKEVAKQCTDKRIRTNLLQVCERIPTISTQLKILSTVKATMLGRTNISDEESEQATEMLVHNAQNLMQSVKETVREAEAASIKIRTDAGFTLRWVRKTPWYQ
Briefly: native gel or EMSA. The note with it: remark: other sources report otherwise.

Results are given in words; binding and its absence hold for the method and conditions named. Some entries that bind do so weakly or less than the wild type.

As for “cysteine-clamped full-length vinculin (HV-CC) (from UniProt P18206-2 1-1066)”, the binding entry in assay [1] is recorded as “no binding”.

B1: full-length human vinculin (HV), P18206-2 1-1066 (protein)
chain: MPVFHTRTIESILEPVAQQISHLVIMHEEGEVDGKAIPDLTAPVAAVQAAVSNLVRVGKETVQTTEDQILKRDMPPAFIKVENACTKLVQAAQMLQSDPYSVPARDYLIDGSRGILSGTSDLLLTFDEAEVRKIIRVCKGILEYLTVAEVVETMEDLVTYTKNLGPGMTKMAKMIDERQQELTHQEHRVMLVNSMNTVKELLPVLISAMKIFVTTKNSKNQGIEEALKNRNFTVEKMSAEINEIIRVLQLTSWDEDAWASKDTEAMKRALASIDSKLNQAKGWLRDPSASPGDAGEQAIRQILDEAGKVGELCAGKERREILGTCKMLGQMTDQVADLRARGQGSSPVAMQKAQQVSQGLDVLTAKVENAARKLEAMTNSKQSIAKKIDAAQNWLADPNGGPEGEEQIRGALAEARKIAELCDDPKERDDILRSLGEISALTSKLADLRRQGKGDSPEARALAKQVATALQNLQTKTNRAVANSRPAKAAVHLEGKIEQAQRWIDNPTVDDRGVGQAAIRGLVAEGHRLANVMMGPYRQDLLAKCDRVDQLTAQLADLAARGEGESPQARALASQLQDSLKDLKARMQEAMTQEVSDVFSDTTTPIKLLAVAATAPPDAPNREEVFDERAANFENHSGKLGATAEKAAAVGTANKSTVEGIQASVKTARELTPQVVSAARILLRNPGNQAAYEHFETMKNQWIDNVEKMTGLVDEAIDTKSLLDASEEAIKKDLDKCKVAMANIQPQMLVAGATSIARRANRILLVAKREVENSEDPKFREAVKAASDELSKTISPMVMDAKAVAGNISDPGLQKSFLDSGYRILGAVAKVREAFQPQEPDFPPPPPDLEQLRLTDELAPPKPPLPEGEVPPPRPPPPEEKDEEFPEQKAGEVINQPMMMAARQLHDEARKWSSKGNDIIAAAKRMALLMAEMSRLVRGGSGTKRALIQCAKDIAKASDEVTRLAKEVAKQCTDKRIRTNLLQVCERIPTISTQLKILSTVKATMLGRTNISDEESEQATEMLVHNAQNLMQSVKETVREAEAASIKIRTDAGFTLRWVRKTPWYQ
Take B1: in assay [2], the binding entry is on record as “binds”.

(Values after paper doi:10.1101/2022.11.07.515412.)
